Values quoted from earlier work as cited in patent publication US20210230090A1, “METAL COMPLEXES OF B-DIKETONES AND/OR POLYPHENOLS BY GREEN CHEMISTRY, PREPARATION METHOD THEREOF, SUNSCREEN THEREOF, SKIN OR HAIR TONE CONCEALER THEREOF, HAIR DYEING THEREOF AND OTHER USES THEREOF” (priority 2018, published 2021).

COc1cc(/C=C/C(=O)CC(=O)/C=C/c2ccc(O)c(OC)c2)ccc1O [curcumin, 1,7-Bis(4-hidroxy-3-methoxyphenyl)hepta-1,6-diene-3,5-dione]
solubility in water (acidic and neutral pH conditions): almost insoluble
solubility (alkali medium): soluble
